# Assay results reported in EP4541891A1 (Ichimaru Pharcos Co., Ltd., priority 2022, dated 2025).
# HELM strings list residues between dots; [ac] is acetyl, [am] amide, other brackets name non-standard units. Bridge positions count the residues as written; N and C are the ends. Square brackets hold non-standard residues; d marks the D form. * marks the point of attachment. 5FAM = O=C1OC2(c3ccc(O)cc3Oc3cc(O)ccc32)c2ccc(C(=O)*)cc21; Biotin = O=C1N[C@H]2[C@H](CS[C@H]2CCCCC(=O)*)N1; Nle = CCCC[C@H](N)C(=O)O; Orn = NCCC[C@H](N)C(=O)O; Aib = CC(C)(N)C(=O)O
# Assay: peptide made by a vendor (peptide synthesis; Trt(2-Cl)-Resin; HATU/DIEA)
# Conditions: conjugation step
row,Substance,final purity (method not given)
1,DBCO-PEG5-Taz-PEG4-Gly-Thr-Pro-c(Cys-Thr-Tyr-Lys-Tyr-Nle-Leu-Ala-Glu-Nle-Cys)-OH (SEQ ID NO: 55),95.0%

# Same assay, conditions: whole synthesis
row,Substance,final purity (method not given)
1,Ac-K(5FAM)GTP[dC]TYKY[Nle]LAE[Nle][dC]-OH (disulfide 5-15; SEQ ID NO: 14),96%
2,Ac-K(5FAM)GTPCTWKY[Nle]LAE[Nle]C-OH (disulfide 5-15; SEQ ID NO: 21),95%
3,Ac-K(5FAM)GTPCTYKY[Nle]LAEVC-OH (disulfide 5-15; SEQ ID NO: 38),95%
4,Ac-K(5FAM)GTPCTYKY[Nle]LAG[Nle]C-OH (disulfide 5-15; SEQ ID NO: 37),95%
5,Ac-K(5FAM)GTPCTYKY[Nle]IAE[Nle]C-OH (disulfide 5-15; SEQ ID NO: 29),95%
6,Ac-lys(5FAM)-Gly-Thr-Pro-c(^DCys-Thr-Tyr-Lys-Thr-Nle-Leu-Ala-Glu-Nle-^DCys)-OH (SEQ ID NO: 16),98%
7,Ac-K(5FAM)GTP[dC]TYKY[Nle]LAE[Nle]C-OH (SEQ ID NO: 5; cysteine pairing not given here),99%
8,Ac-Lys(5FAM)-Gly-Thr-Pro-c(Cys-Thr-Tyr-Lys-Tyr-Nle-Ahep-Ala-Glu-Nle-Cys)-OH (SEQ ID NO: 31),100%
9,Ac-Lys(5FAM)-Gly-Thr-Pro-c(Cys-Thr-Tyr-Lys-Tyr-Nle-Leu-Ala-Glu-Aoc-Cys)-OH (SEQ ID NO: 42),95%
10,Ac-K(5FAM)GTPCTYKY[Nle]L[dA]E[Nle]C-OH (disulfide 5-15; SEQ ID NO: 33),91%
11,Ac-K(5FAM)GTP[dC]TYKY[Nle]LAE[Nle]C-OH (disulfide 5-15; SEQ ID NO: 6),100%
12,Ac-K(5FAM)GTPCTYKY[Nle]LAEIC-OH (disulfide 5-15; SEQ ID NO: 40),96%
13,Ac-Lys(5FAM)-Gly-Thr-Pro-c(Cys-Thr-Tyr-Lys-Tyr-Nle-Leu-Ala-Glu-Ahep-Cys)-OH (SEQ ID NO: 41),97%
14,Ac-K(5FAM)GTP[dC]TYKY[Nle]LAE[Nle]C-OH (disulfide 5-15; SEQ ID NO: 8),77%
15,Ac-K(5FAM)GTPCTYKY[Nle]LAE[Nle]C-OH (disulfide 5-15; SEQ ID NO: 2),95%
16,Ac-K(5FAM)GTPCTYKY[Nle]LAE[Nle][dC]-OH (disulfide 5-15; SEQ ID NO: 11),100%
17,Ac-K(5FAM)GTPCTHKY[Nle]LAE[Nle]C-OH (disulfide 5-15; SEQ ID NO: 22),97%
18,Ac-K(Biotin)GTPCTYKY[Nle]LAE[Nle]C-OH (SEQ ID NO: 45; cysteine pairing not given here),95%
19,Ac-K(5FAM)GTPCTYKY[Nle]LAE[Nle]C-OH (disulfide 5-15; SEQ ID NO: 3),100%
20,Ac-K(5FAM)GTWPKHFDKHTFYSILKLGKH-OH (SEQ ID NO: 48),96%
21,Ac-K(5FAM)GTP[dC]TYKY[Nle]LAE[Nle][dC]-OH (disulfide 5-15; SEQ ID NO: 15),98%
22,Ac-K(5FAM)GTPCSYKY[Nle]LAE[Nle]C-OH (disulfide 5-15; SEQ ID NO: 17),95%
23,Ac-K(5FAM)GTPCTYKY[Nle]LAD[Nle]C-OH (disulfide 5-15; SEQ ID NO: 35),99%
24,Ac-K(5FAM)GTPCTYKYRLAE[Nle]C-OH (disulfide 5-15; SEQ ID NO: 27),95%

row,Substance,final purity (method not given)
1,Ac-K(5FAM)GTPCTYKY[Nle]LAE[Nle][dC]-OH (disulfide 5-15; SEQ ID NO: 12),99%
2,Ac-K(5FAM)GTP[dC]TYKY[Nle]LAE[Nle][dC]-OH (SEQ ID NO: 13; cysteine pairing not given here),99%
3,Ac-K(5FAM)GTPCTYKY[Nle]VAE[Nle]C-OH (disulfide 5-15; SEQ ID NO: 28),96%
4,Ac-K(5FAM)GTPCTYKY[Nle]LAE[Nle][dC]-OH (disulfide 5-15; SEQ ID NO: 10),100%
5,Lys(5FAM)-Gly-Thr-Phe-Phe-Tyr-Gly-Gly-Ser-Arg-Gly-Lys-Arg-Asn-Asn-Phe-Lys-The-Glu-Glu-Tyr-OH (SEQ ID NO: 47),99%
6,Ac-Lys(5FAM)-Gly-Thr-Pro-c(Cys-Thr-Tyr-Lys-Tyr-Nle-Aoc-Ala-Glu-Nle-Cys)-OH (SEQ ID NO: 32),96%
7,Ac-K(5FAM)GTPCTYKY[Nle]LAE[Nle][dC]-OH (SEQ ID NO: 9; cysteine pairing not given here),99%
8,Ac-K(5FAM)GTPCTYKY[Nle]LAE[Nle]C-OH (disulfide 5-15; SEQ ID NO: 4),90%
9,Ac-K(5FAM)GTP[dC]TYKY[Nle]LAE[Nle]C-OH (disulfide 5-15; SEQ ID NO: 7),98%
10,Ac-Lys(5FAM)-Gly-Thr-Pro-c(Cys-cHyp-Tyr-Lys-Tyr-Nle-Leu-Ala-Glu-Nle-Cys)-OH (SEQ ID NO: 18),99%
11,Ac-K(5FAM)GTPCTFKY[Nle]LAE[Nle]C-OH (disulfide 5-15; SEQ ID NO: 20),97%
12,Ac-K(5FAM)GTPCTYKY[Nle]LAA[Nle]C-OH (disulfide 5-15; SEQ ID NO: 36),95%
13,Ac-Lys(5FAM)-Gly-Thr-Pro-c(Cys-tHyp-Tyr-Lys-Tyr-Nle-Leu-Ala-Glu-Nle-Cys)-OH (SEQ ID NO: 19),95%
14,Ac-K(5FAM)GTPCTYKRRLAE[Nle]C-OH (disulfide 5-15; SEQ ID NO: 26),96%
15,Ac-K(5FAM)GTPCTYRY[Nle]LAE[Nle]C-OH (disulfide 5-15; SEQ ID NO: 24),98%
16,"PEPTIDE1{[ac].[KBiot].G.T.P.[Cx].T.Y.K.Y.[Nle].L.A.E.[Nle].[Cx]}$PEPTIDE1,PEPTIDE1,6:R3-16:R3$$$V2.0",96%
17,Ac-K(5FAM)GTPTCYKY[Nle]LAE[Nle]PC-OH (disulfide 6-16; SEQ ID NO: 44),96%
18,Ac-K(5FAM)GTPCTYKY[Nle]LAELC-OH (disulfide 5-15; SEQ ID NO: 39),88%
19,Ac-K(5FAM)GTPCTYKY[Nle][Nle]AE[Nle]C-OH (disulfide 5-15; SEQ ID NO: 30),95%
20,Ac-K(5FAM)GTPCTYKY[Nle]L[Aib]E[Nle]C-OH (disulfide 5-15; SEQ ID NO: 34),96%
21,Ac-K(5FAM)GTPCTYKY[Nle]LAE[Nle]PC-OH (disulfide 5-16; SEQ ID NO: 43),95%
22,Ac-K(5FAM)GTPCTYK[Nle][Nle]LAE[Nle]C-OH (disulfide 5-15; SEQ ID NO: 25),96%
23,Ac-K(5FAM)GTPCTY[Orn]Y[Nle]LAE[Nle]C-OH (disulfide 5-15; SEQ ID NO: 23),90%
